Data as given in PubChem BioAssay AID686937 (Drosophila RNAi Screening Center, 2013).

Assay: 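Genes in the fly needed for secretion of protein constitutively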 (primary screen)
System: Drosophila S2 cells expressing secreted horseradish peroxidase
Reagent: long dsRNA against Drosophila genes
Duration: about 5.5 days (5 days dsRNA, then 12 h reporter induction)
Treatment: reporter expression induced after 5 days of dsRNA, read 12 h later; inducer not stated
Measured: 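Chemiluminescent measurement of peroxidase in the medium 12 h after reporter induction, following 5 days of dsRNA, given as a z-score per plate; higher means more secretion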
Direction: z-score: higher = more reporter secreted into medium
In all, the deposit lists about 23,000 reagents; below is a random part of those that have a named target and a result. 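Reduced-secretion tags in replicate 1 do not always agree with the z-scores; no criterion for assigning the tags was given.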 Further read-outs or replicates are left out here. The record does not give: the amount of reagent.

DIP-delta [DRSC10214] gave z-score, replicate 1 = -0.51. With knock-down of DIP-delta [DRSC10450], the record shows z-score, replicate 1 = 0.36. After knock-down of CG5555 [DRSC15834] the results were z-score, replicate 1 = 0.29. After knock-down of CG4020 [DRSC18337], the record shows z-score, replicate 1 = 0.24. twe [DRSC03628] scored z-score, replicate 1 = 0.25. Against Jon25Bii [DRSC03114], the values are z-score, replicate 1 = -0.03.

After knock-down of CG11723 [DRSC00324], the screen gave z-score, replicate 1 = 0.2. Knock-down of Neurl4 [DRSC10638] came out at: z-score, replicate 1 = 0.32. After knock-down of CG43191 [DRSC05326], the screen gave z-score, replicate 1 = 0.24. Silencing of CG31021 [DRSC22319] resulted in: z-score, replicate 1 = -0.76. AttC [DRSC06886] gave z-score, replicate 1 = 0.27. After knock-down of CG6013 [DRSC15947], the record shows z-score, replicate 1 = -0.03.

After knock-down of CG4572 [DRSC15603], the record shows z-score, replicate 1 = 0.31. RhoGEF64C [DRSC08318] gave z-score, replicate 1 = 0.35. RhoGEF64C [DRSC08319] showed z-score, replicate 1 = 0.5. For MED18 [DRSC18549] the deposit lists z-score, replicate 1 = -0.06. For RhoGAP93B [DRSC15488], the entry reads z-score, replicate 1 = 0.47. Against CBP [DRSC17746], the values are z-score, replicate 1 = 0.46.

Cndp2 [DRSC04873] showed z-score, replicate 1 = 0.03. For aurB [DRSC03548], the entry reads z-score, replicate 1 = -0.45. Silencing of CG31219 [DRSC15140] came out at: z-score, replicate 1 = 0.3. For UQCR-C1 [DRSC15508] the deposit lists z-score, replicate 1 = -0.87. Against trpl [DRSC06728], the values are z-score, replicate 1 = 0.45. Knock-down of trpl [DRSC06729] resulted in: z-score, replicate 1 = 0.05.

For Fkbp59 [DRSC03323], the values are z-score, replicate 1 = 0.17. For r-cup [DRSC20475], the values are z-score, replicate 1 = 0.26. For CG4866 [DRSC06899] the deposit lists z-score, replicate 1 = 0.32. CG43182 [DRSC17668] showed z-score, replicate 1 = 0.06. Against Akr1B [DRSC10581] the deposit lists z-score, replicate 1 = 0.22. MtnF [DRSC13683] gave z-score, replicate 1 = 0.18.

Depletion of SoxN [DRSC03440] resulted in: z-score, replicate 1 = -0.12. Silencing of SoxN [DRSC21779] gave: z-score, replicate 1 = 0.12. After knock-down of CG5191 [DRSC15733] the results were z-score, replicate 1 = 0.19. CG5191 [DRSC15734] gave z-score, replicate 1 = 0.18. Against CG5191 [DRSC21559], the entry reads z-score, replicate 1 = 0.11. CG8407 [DRSC07167] showed z-score, replicate 1 = 0.21.

For CG14417 [DRSC18638], the entry reads z-score, replicate 1 = 0.43. Silencing of CCHa2-R [DRSC04825] resulted in: z-score, replicate 1 = -1.21. Silencing of CCHa2-R [DRSC04870] gave: z-score, replicate 1 = 0.34. CCHa2-R [DRSC04871] scored z-score, replicate 1 = 0.4. After knock-down of CG30109 [DRSC05675], the record shows z-score, replicate 1 = 0.34. With knock-down of Oct-TyrR [DRSC11883], the record shows z-score, replicate 1 = 0.07.

Against CG30427 [DRSC04014], the values are z-score, replicate 1 = 0.17. Depletion of CG30427 [DRSC04311] gave: z-score, replicate 1 = 0.38. After knock-down of CG30427 [DRSC04323], the record shows z-score, replicate 1 = 0.19. With knock-down of Ugt37A3 [DRSC15937], the record shows z-score, replicate 1 = -0.17. After knock-down of Srp19 [DRSC11288], the record shows z-score, replicate 1 = -0.83. After knock-down of CG4822 [DRSC00669], the screen gave z-score, replicate 1 = 0.27.

With knock-down of Acp53C14c [DRSC05626], the record shows z-score, replicate 1 = -0.01. For ATP8B [DRSC12883] the deposit lists z-score, replicate 1 = 0.12. With knock-down of ATP8B [DRSC14961], the record shows z-score, replicate 1 = 0.4.

Not a retest: an excerpt of the list.
CG43191 [DRSC05326]: z-score, replicate 1 = 0.24
CG31021 [DRSC22319]: z-score, replicate 1 = -0.76
AttC [DRSC06886]: z-score, replicate 1 = 0.27
CG6013 [DRSC15947]: z-score, replicate 1 = -0.03
CG4572 [DRSC15603]: z-score, replicate 1 = 0.31
RhoGEF64C [DRSC08318]: z-score, replicate 1 = 0.35
RhoGEF64C [DRSC08319]: z-score, replicate 1 = 0.5
MED18 [DRSC18549]: z-score, replicate 1 = -0.06
